PubChem BioAssay AID504444 (National Center for Advancing Translational Sciences (NCATS), 2011)
Hit rate of the full screen: of about 360,000 compounds, about 7,500 (2.1%) were called active. The shares of active, inactive and inconclusive entries below differ from those in the screen. Calls follow the shape of the dose curve; as a rule, active = well fitted inhibition curve with a large enough effect; inconclusive = small, poorly fitted or top-dose-only effect, or effect the other way; inactive = flat fitted curve, though single readings scatter. A potency beside an inconclusive call is a rough fit, not a confirmed value.
% is scaled to controls: 0 for no effect and ±100 for the full control effect; potency is read from the fitted curve at half-maximal effect.

Assay: Nrf2 qHTS screen for inhibitors; also: nearly all actives have a fitted effect of over 60% in size
Conditions: A549 ARE-Fluc reporter, luciferase luminescence, 18-24 h; activity change, negative = inhibition: at 46 µM (top of the series)
In short: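 A549 ARE_Fluc cells (5000/well, 5% FBS OPTI-MEM) pre-incubated 2 h, then treated with compounds 18-24 h at 37C/5% CO2 in concentration-response. CellTiter-Fluor viability read first; BugLite luciferase luminescence after 15 min at room temperature gives Nrf2 activity.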
For CCCn1c(C)cc(=O)c2cc(NC(=O)c3cnccn3)ccc21, the Potency was inconclusive: 16.4 µM [falling, partial curve, poor fit]. In the case of CC(C)(C)c1ccc(C(=O)Nc2ccc(CC(=O)O)cc2)o1, the Potency is reported as active: 3.66 µM. With COc1ccccc1NC(=O)c1ccc(C)c(S(=O)(=O)N2CCCCC2)c1 the Potency was inconclusive: 29.1 µM [falling, single point]. With Nc1c(Cl)cnn(-c2ccccc2)c1=O the “activity change, negative = inhibition” value was inactive: 3.11%. For Cc1ccc(CN(C(=O)c2ccc(C(C)(C)C)cc2)c2ccccn2)o1, the Potency was inconclusive: 2.06 µM [activator, full curve]. In the case of Cc1ccc(S(=O)(=O)N2CCC(C(=O)N3CCN(Cc4ccccc4)CC3)CC2)cc1, the Potency is reported as inconclusive: 11.6 µM [falling, single point]. For CC(=O)Nc1ccc(C2=NNC(=NCC3CCCO3)SC2)cc1 (stereo unspecified), the “activity change, negative = inhibition” value was inactive: 10.5%. For O=S1(=O)CC/C(=N/Nc2ccc(C(F)(F)F)cn2)c2cc(F)ccc21, the Potency was inconclusive: 10.3 µM [falling, partial curve]. For Cc1cccc(NC(=O)C2CCN(S(=O)(=O)c3ccc4c(c3)NC(=O)CO4)CC2)c1C, the “activity change, negative = inhibition” value was inactive: -4.52%. For CCc1ccccc1NC(=O)CN1CCN(CC(=O)NCc2ccc(Cl)cc2)CC1, the Potency was inconclusive: 10.3 µM [falling, partial curve]. For C/C(=N\Nc1nnc(-c2ccccc2)c(-c2ccccc2)n1)c1cccc([N+](=O)[O-])c1, the Potency was inconclusive: 0.116 µM [falling, full curve, poor fit]. In the case of O=C(CNC(=O)c1ccc(F)cc1)c1ccccc1, the Potency is reported as inconclusive: 4.11 µM [activator, full curve]. For CCOC(=O)c1cnn(-c2nc(-c3cccc(F)c3)cs2)c1C(F)(F)F, the Potency was inconclusive: 0.092 µM [falling, full curve, poor fit]. In the case of Cc1ccc(CS(=O)(=O)c2ccc(C(=O)N3CCN(c4ccccn4)CC3)cc2[N+](=O)[O-])cc1, the Potency is reported as inconclusive: 20.6 µM [falling, single point]. For CCOc1ccc(C2C(C(=O)/C=C/c3ccco3)=C(O)C(=O)N2CCN2CCOCC2)cc1OC (stereo unspecified), the Potency was inconclusive: 11.6 µM [activator, partial curve, poor fit]. In the case of Cc1cc(C)n(CC(=O)N/N=C/c2ccc([N+](=O)[O-])s2)n1, the Potency is reported as inconclusive: 8.2 µM [falling, partial curve]. In the case of COc1ccc2[nH]c3c(Cl)ncnc3c2c1, the “activity change, negative = inhibition” value is reported as inactive: 0.187%. In the case of Cc1cc(C)nc(NS(=O)(=O)c2ccc(NC(=O)c3cc(-c4ccccc4)nc4ccccc34)cc2)n1, the Potency is reported as inconclusive: 23.1 µM [falling, single point]. With CC(C)NC(=O)NC(=O)COc1ccc(Br)cc1Br the Potency was inconclusive: 0.366 µM [activator, full curve]. In the case of Cn1cccc1CNC(=O)Nc1ccc(Cl)cc1, the Potency is reported as inconclusive: 4.11 µM [activator, partial curve]. For O=C(CSc1nnc2c(n1)[nH]c1ccccc12)NCc1ccco1, the Potency was inconclusive: 4.61 µM [activator, partial curve, poor fit]. With NC(=O)CN1CCN(C(=O)NC2CCCCC2)CC1 the Potency was inconclusive: 23.1 µM [activator, partial curve, poor fit]. With COC(=O)c1cc(Nc2nc3ccccc3nc2NS(=O)(=O)c2ccc(C)cc2)ccc1Cl the “activity change, negative = inhibition” value was inactive: 15.2%. For Cc1noc(C)c1COC(=O)c1ccccc1Oc1ccccc1, the “activity change, negative = inhibition” value was inactive: -10.2%. With COc1cccc(-c2ccc(C#N)c(SCC(=O)NCCc3ccc(Cl)cc3)n2)c1 the “activity change, negative = inhibition” value was inactive: -20.6%. In the case of COc1ccc(Cc2nc3ccc(C(=O)NC(C)c4cnn(C)c4)cc3o2)cc1 (stereo unspecified), the Potency is reported as inconclusive: 18.4 µM [falling, single point]. For O=C(NCCC1=CCCCC1)C1CCN(C(=O)c2ccc(Cl)cc2)CC1, the Potency was inconclusive: 7.31 µM [activator, single point]. With CCCCn1nc(C(=O)Nc2ccc(S(=O)(=O)Nc3ncccn3)cc2)c2ccccc2c1=O the Potency was inconclusive: 11.6 µM [falling, partial curve, poor fit]. With O=C(Nc1ccc(F)cc1)N1CCn2c(nc3ccccc32)C1 the Potency was inconclusive: 2.31 µM [falling, full curve, poor fit]. For O=C(N/N=C/c1sc(=O)n(Cc2ccc(Br)cc2)c1Cl)c1ccco1, the Potency was inconclusive: 29.1 µM [falling, single point]. For Cc1cccc(-c2cc3nc4c(c(N5CCCC(O)C5)n3n2)CCC4)c1 (stereo unspecified), the Potency was inconclusive: 4.61 µM [falling, full curve, poor fit]. With CC(=O)c1cccc(NC(=O)c2sc3nc4n(c(=O)c3c2C)CCCC4)c1 the Potency was inconclusive: 23.1 µM [activator, partial curve, poor fit]. With O=C(C(NS(=O)(=O)c1cccc2nsnc12)c1ccccc1)N1CCN(c2ccccn2)CC1 (stereo unspecified) the Potency was inconclusive: 29.1 µM [falling, single point]. For C=CCn1c(O)c(N=O)c2cc(C)ccc21, the Potency was inconclusive: 0.0052 µM [falling, full curve, poor fit]. In the case of Cc1ccc(Cn2cc(S(=O)(=O)c3cccc(C)c3)c(=O)c3cc(F)c(N4CCOCC4)cc32)cc1, the Potency is reported as inconclusive: 29.1 µM [falling, single point]. For Cc1cc(C(F)F)n2ncc(C(=O)NCCc3ccc(Cl)cc3)c2n1, the “activity change, negative = inhibition” value was inactive: -28.1%. In the case of COc1ccc(-n2c(N)c(C(=O)NCc3ccco3)c3nc4ccccc4nc32)c(OC)c1, the Potency is reported as inconclusive: 29.1 µM [falling, single point]. For COc1ccccc1-c1cc(C(=O)NCCCn2ccnc2)no1, the Potency was inconclusive: 29.1 µM [falling, single point]. For O=C(COc1ccccc1)NC1=NCCS1, the Potency was inconclusive: 23.1 µM [activator, single point]. For O=C(NCc1csc(-c2ccccc2)n1)c1ccco1, the “activity change, negative = inhibition” value was inactive: -6.54%. With COc1cccc2c(=O)cc(C)n(CC(=O)Nc3ccc(C)c(C)c3)c12 the Potency was inconclusive: 18.4 µM [falling, partial curve, poor fit]. In the case of COc1ccc(OC)c(C2=Nn3c(nnc3-c3cccc(OC)c3OC)SC2)c1, the “activity change, negative = inhibition” value is reported as inactive: 2.75%. With Cc1ccccc1Cn1nc(C)c(NC(=O)c2sc3ccccc3c2Cl)c1C the Potency was inconclusive: 20.6 µM [falling, single point]. In the case of NC(N)=NS(=O)(=O)c1ccc(NC(=S)NC(=O)c2ccccc2)cc1, the Potency is reported as inconclusive: 5.8 µM [activator, full curve, poor fit]. In the case of CCn1c2ccccc2c2cc(CN3CCN(Cc4ccc(Br)cc4)CC3)ccc21, the “activity change, negative = inhibition” value is reported as inactive: 2.29%. With COc1ccc(-c2csc3nc(C)nc(N4CCN(c5ccc(C(C)=O)cc5)CC4)c23)cc1OC the “activity change, negative = inhibition” value was inactive: -17.1%. With O=C(CCS(=O)(=O)c1cc2c(cc1Cl)NC(=O)CO2)NCc1ccc(Cl)cc1 the “activity change, negative = inhibition” value was inactive: -12.5%. For Cc1cccc(C(=O)N=c2sccn2C)c1[N+](=O)[O-], the Potency was inconclusive: 2.91 µM [activator, full curve]. In the case of Cc1ccc(C)c(Cn2nnc3c(=O)[nH]c(C4CCN(S(=O)(=O)c5ccc(S(=O)(=O)NC6CC6)cc5)CC4)nc32)c1, the “activity change, negative = inhibition” value is reported as inactive: -14.6%. In the case of Cc1ccc(-c2nc3ccccc3[nH]2)s1, the Potency is reported as inconclusive: 5.8 µM [activator, partial curve]. For Cc1cccc(Nc2ncnc3onc(-c4ccc(Cl)cc4)c23)c1C, the Potency was inconclusive: 16.4 µM [falling, single point]. For Cc1ncoc1C(=O)N1CCCC(C(=O)c2ccc(C(F)(F)F)cc2)C1 (stereo unspecified), the Potency was inconclusive: 29.1 µM [activator, single point]. In the case of CC(O)CNc1nc2c(c(=O)n(C)c(=O)n2C)n1C/C=C/c1ccccc1 (stereo unspecified), the Potency is reported as active: 23.1 µM. For CCN(CC)c1ccc(NC(=O)CCNC(=O)c2ccco2)cc1, the Potency was inconclusive: 18.4 µM [activator, single point]. For CS(=O)(=O)N1CCN(c2ccc([N+](=O)[O-])c(NCc3ccc(Cl)cc3)c2)CC1, the Potency was inconclusive: 14.6 µM [falling, single point]. In the case of O=C(CNC(=O)c1ccncc1)OC(C(=O)Nc1cc(C(F)(F)F)ccc1Cl)c1ccccc1 (stereo unspecified), the Potency is reported as inconclusive: 2.91 µM [falling, single point]. In the case of CC(=O)N/C(=C\c1cccs1)C(=O)O, the Potency is reported as inconclusive: 10.3 µM [activator, partial curve, poor fit]. In the case of Cc1ccc(-c2nc(CS(=O)CC(=O)NCCCc3ccccc3)c(C)o2)cc1 (stereo unspecified), the “activity change, negative = inhibition” value is reported as inactive: 4.01%. In the case of Cc1ccc(C(=O)OCC(=O)Nc2ccccc2)cc1NC(=O)c1ccco1, the Potency is reported as inconclusive: 16.4 µM [activator, single point]. In the case of O=C(CSc1nc2nn(-c3ccccc3)c(=O)c-2c2n1CCCCC2)Nc1ccc(OC(F)F)cc1, the Potency is reported as inconclusive: 16.4 µM [falling, single point]. In the case of CN(C)C(CNC(=O)CCS(=O)(=O)c1ccccc1)c1ccccc1 (stereo unspecified), the Potency is reported as inconclusive: 2.06 µM [activator, partial curve]. For COc1ccccc1OCc1ccc(C(=O)Nc2ccccc2)cc1, the “activity change, negative = inhibition” value was inactive: 5.8%. With COc1ccc(C(=O)Nc2cccc(/C=C(/CCC(=O)O)c3nc4ccccc4s3)c2)cc1 the Potency was inconclusive: 16.4 µM [activator, single point]. With CCCn1ncc(CN2CCC(C(=O)Nc3cccc(-c4cccc(F)c4)c3)CC2)c1C the Potency was inconclusive: 29.1 µM [activator, partial curve, poor fit]. In the case of COc1cccc(NCc2cccn2-c2nnc(N3CCC(C)CC3)s2)c1, the Potency is reported as inconclusive: 6.51 µM [falling, single point]. In the case of CCC(C)NC(=O)CN1C(=O)c2cccnc2Sc2ccccc21 (stereo unspecified), the Potency is reported as inconclusive: 6.51 µM [falling, single point].
